From the supplement of paper PMC10849652
This is one part of the list.

Amino acid sequences for entries named in this document (tags omitted). A change or cut given only in a name is not applied to a line headed by its entry.
UniProt Q86X29: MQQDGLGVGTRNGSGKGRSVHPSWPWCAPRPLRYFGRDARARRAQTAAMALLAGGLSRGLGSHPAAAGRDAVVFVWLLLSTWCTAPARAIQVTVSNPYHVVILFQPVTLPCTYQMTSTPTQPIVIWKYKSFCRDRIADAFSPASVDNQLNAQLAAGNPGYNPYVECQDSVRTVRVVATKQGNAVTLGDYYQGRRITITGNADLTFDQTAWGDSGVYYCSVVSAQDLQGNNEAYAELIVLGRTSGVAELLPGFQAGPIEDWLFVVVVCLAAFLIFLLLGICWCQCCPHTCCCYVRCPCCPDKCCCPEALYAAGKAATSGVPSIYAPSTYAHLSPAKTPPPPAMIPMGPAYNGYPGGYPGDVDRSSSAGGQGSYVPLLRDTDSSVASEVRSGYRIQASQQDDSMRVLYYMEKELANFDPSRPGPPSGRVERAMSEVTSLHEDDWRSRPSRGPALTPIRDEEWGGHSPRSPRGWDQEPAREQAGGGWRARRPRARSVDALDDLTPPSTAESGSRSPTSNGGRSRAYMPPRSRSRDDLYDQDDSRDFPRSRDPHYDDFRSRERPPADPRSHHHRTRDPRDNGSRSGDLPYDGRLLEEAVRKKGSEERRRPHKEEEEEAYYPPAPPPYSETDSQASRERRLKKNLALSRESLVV
UniProt Q9H0U3: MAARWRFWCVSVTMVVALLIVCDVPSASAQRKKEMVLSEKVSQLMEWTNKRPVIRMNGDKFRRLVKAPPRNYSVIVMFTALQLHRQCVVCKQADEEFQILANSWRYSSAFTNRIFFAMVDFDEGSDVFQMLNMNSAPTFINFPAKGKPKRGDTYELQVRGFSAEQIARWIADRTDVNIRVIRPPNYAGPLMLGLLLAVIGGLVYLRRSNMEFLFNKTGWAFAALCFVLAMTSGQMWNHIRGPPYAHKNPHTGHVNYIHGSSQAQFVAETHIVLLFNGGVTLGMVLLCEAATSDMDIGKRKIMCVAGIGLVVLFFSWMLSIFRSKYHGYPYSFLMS
UniProt P07948: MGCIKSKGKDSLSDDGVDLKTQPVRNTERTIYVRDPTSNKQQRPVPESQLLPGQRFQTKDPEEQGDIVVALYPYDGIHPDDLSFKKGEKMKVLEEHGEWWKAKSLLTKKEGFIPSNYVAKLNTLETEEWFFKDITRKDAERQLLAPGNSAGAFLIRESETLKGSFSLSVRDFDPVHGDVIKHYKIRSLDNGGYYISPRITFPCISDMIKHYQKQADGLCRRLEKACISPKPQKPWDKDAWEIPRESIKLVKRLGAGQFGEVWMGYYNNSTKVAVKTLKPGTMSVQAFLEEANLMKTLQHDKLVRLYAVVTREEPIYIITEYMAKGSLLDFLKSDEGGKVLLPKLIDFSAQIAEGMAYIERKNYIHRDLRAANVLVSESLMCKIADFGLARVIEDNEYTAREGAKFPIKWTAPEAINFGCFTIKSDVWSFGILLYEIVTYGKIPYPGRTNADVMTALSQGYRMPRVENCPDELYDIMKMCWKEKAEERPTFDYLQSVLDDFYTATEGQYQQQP
UniProt Q9Y2U5: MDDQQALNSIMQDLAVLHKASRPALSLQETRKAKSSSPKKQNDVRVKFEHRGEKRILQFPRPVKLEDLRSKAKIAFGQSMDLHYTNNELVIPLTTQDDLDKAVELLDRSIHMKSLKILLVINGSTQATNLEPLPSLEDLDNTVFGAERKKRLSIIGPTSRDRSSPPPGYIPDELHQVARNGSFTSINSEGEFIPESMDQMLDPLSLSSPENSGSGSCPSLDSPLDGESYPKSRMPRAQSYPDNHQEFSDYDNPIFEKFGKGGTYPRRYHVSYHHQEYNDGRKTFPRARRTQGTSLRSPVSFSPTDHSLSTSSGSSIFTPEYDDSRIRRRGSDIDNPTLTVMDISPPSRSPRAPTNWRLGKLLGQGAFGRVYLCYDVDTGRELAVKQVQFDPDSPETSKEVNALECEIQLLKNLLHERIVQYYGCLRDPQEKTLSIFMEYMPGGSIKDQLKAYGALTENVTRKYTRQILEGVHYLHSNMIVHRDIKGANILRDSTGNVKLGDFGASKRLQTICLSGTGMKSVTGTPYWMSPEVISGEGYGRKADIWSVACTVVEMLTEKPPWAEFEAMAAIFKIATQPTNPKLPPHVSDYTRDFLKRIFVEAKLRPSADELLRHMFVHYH
UniProt Q9NQ48: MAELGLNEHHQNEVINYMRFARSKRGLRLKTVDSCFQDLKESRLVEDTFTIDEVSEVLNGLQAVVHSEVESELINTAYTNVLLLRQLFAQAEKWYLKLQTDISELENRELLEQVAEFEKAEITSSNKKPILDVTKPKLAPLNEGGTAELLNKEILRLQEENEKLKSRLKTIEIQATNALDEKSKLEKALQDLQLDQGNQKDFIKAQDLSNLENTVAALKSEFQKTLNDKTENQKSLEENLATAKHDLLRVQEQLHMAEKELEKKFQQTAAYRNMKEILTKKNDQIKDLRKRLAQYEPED
UniProt P27361, whole entry, looked up: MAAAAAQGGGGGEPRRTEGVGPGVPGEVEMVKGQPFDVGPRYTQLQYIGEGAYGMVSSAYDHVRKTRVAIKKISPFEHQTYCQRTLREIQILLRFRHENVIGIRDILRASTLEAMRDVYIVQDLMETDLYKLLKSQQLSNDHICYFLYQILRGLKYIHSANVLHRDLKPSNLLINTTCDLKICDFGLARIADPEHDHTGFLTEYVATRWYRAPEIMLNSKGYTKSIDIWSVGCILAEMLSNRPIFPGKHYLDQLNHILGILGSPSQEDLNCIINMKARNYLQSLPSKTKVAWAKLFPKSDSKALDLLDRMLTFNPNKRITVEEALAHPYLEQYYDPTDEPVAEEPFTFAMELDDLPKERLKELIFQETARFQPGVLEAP
UniProt P20645: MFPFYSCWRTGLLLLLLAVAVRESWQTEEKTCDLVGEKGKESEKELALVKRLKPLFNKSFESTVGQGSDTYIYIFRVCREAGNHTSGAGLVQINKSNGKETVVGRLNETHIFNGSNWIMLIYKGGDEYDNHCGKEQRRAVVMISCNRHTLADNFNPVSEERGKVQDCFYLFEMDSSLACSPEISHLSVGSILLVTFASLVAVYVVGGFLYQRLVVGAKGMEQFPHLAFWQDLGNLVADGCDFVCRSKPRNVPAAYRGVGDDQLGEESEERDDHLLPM
UniProt P55145: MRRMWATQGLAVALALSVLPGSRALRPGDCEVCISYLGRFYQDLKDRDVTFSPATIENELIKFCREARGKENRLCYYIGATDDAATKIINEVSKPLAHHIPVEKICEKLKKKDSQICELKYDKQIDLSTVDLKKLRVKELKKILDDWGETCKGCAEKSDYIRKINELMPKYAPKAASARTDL
UniProt Q5U5X0: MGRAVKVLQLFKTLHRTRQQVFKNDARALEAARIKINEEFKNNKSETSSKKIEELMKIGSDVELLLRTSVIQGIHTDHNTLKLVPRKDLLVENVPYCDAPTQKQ
UniProt P62312: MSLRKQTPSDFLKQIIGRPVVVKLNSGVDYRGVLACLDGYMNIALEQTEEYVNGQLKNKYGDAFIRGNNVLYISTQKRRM
UniProt Q16539, whole entry, looked up: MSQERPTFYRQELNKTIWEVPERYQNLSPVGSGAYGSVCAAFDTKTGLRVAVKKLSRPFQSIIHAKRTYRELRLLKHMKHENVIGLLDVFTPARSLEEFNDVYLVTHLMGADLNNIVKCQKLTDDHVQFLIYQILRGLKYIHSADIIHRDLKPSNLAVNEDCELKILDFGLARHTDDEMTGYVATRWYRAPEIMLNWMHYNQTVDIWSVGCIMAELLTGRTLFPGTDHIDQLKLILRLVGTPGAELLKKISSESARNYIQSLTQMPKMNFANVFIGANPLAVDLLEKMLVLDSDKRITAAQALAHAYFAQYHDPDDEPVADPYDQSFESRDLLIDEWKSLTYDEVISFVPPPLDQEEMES
UniProt P45985: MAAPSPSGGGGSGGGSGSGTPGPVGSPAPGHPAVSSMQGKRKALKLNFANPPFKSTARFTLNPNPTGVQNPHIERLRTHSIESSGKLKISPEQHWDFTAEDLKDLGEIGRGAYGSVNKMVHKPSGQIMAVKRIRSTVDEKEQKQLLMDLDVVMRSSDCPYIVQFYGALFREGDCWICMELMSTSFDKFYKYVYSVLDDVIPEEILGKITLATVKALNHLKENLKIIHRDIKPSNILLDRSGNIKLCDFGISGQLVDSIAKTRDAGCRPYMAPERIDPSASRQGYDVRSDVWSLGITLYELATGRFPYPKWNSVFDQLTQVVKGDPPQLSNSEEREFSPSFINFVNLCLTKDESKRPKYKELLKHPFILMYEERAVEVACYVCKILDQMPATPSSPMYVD
UniProt Q9Y333: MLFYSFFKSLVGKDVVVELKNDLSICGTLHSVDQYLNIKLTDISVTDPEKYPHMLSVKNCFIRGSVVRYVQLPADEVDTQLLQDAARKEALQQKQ
UniProt P45983: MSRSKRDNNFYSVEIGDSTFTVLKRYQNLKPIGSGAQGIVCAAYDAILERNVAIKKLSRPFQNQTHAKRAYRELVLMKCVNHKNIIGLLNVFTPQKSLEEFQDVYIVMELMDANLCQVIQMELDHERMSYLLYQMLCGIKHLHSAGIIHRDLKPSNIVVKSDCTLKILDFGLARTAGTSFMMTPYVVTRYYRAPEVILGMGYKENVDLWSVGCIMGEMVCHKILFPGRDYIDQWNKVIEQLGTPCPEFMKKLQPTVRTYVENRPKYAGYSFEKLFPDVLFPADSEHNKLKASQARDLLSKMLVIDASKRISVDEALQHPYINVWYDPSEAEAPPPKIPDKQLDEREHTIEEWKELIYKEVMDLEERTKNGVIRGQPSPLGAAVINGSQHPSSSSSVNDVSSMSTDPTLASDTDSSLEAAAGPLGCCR
UniProt Q16659, whole entry, looked up: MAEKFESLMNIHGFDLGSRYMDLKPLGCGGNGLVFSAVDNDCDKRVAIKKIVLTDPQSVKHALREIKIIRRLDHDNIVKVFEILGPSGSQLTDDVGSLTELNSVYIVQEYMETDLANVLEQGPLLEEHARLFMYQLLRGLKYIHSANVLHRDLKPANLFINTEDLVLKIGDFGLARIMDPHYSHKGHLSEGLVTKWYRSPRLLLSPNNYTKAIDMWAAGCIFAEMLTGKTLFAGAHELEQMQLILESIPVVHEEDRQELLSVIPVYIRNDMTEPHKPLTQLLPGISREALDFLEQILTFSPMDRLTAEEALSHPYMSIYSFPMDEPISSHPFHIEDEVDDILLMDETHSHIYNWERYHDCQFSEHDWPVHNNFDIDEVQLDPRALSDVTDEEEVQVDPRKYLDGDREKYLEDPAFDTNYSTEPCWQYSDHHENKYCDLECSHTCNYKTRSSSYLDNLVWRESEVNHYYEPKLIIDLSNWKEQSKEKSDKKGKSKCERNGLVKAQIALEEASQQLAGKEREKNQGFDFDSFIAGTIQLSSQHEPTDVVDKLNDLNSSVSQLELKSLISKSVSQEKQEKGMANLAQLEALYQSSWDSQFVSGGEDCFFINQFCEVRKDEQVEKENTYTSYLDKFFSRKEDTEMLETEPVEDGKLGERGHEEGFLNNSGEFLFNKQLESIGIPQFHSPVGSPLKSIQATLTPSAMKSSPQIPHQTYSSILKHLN
UniProt Q9UKM7: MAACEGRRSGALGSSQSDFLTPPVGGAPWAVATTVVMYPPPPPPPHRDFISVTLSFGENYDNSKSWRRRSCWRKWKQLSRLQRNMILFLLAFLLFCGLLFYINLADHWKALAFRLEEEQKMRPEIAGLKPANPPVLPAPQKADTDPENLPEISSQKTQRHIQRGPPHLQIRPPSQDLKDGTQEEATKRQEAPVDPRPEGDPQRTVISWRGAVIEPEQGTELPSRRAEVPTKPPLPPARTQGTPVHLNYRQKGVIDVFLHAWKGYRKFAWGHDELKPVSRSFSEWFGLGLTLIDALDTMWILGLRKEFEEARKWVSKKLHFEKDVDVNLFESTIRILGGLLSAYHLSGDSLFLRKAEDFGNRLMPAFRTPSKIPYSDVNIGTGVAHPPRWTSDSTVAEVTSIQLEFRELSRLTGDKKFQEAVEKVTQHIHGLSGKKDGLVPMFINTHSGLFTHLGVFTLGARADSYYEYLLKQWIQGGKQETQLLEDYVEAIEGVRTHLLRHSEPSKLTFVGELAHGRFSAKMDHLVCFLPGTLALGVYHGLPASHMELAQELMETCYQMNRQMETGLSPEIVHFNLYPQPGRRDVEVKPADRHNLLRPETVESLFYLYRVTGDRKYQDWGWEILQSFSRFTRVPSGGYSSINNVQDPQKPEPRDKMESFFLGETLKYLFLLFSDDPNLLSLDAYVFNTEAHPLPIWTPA
UniProt Q9BX40: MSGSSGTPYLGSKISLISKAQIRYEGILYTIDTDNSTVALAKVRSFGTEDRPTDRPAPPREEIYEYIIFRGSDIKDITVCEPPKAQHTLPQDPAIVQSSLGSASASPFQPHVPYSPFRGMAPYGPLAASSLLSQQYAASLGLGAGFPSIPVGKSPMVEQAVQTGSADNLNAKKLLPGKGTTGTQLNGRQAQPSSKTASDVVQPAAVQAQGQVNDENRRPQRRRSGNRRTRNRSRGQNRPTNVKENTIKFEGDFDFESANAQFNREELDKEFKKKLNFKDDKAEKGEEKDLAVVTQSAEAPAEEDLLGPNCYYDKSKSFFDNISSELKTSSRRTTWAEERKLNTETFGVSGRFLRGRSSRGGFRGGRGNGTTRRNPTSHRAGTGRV

How the values were obtained:
Experiment in all cases: log2 fold change, soluble protein after heating vs DMSO (PISA); higher = thermal stabilisation; K562 cells, 10 uM, 30 min; active = over 0.2 and 3.5 SD of the protein, either way, in both replicates (recomputed)
[1] = compound: NC(=O)Nc1cc(-c2cccc(F)c2)sc1C(=O)N[C@H]1CCCNC1
Procedure, shortened: (§1)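 K562 cells (2×10^6 cells/mL) were treated with 10 μM compound for 30 min, and aliquots were heated for 3 min over 48°C-58°C. Pooled aliquots were extracted in PBS with 0.5% NP-40 at 4°C, and the supernatant after 21,000xg for 90 min was measured by TMTpro 16plex LC-MS/MS with channel sums equalised. Reported thermal stability, relative to control samples and from duplicates, is a log2 fold change.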

[2] = compound: NC(=O)c1cnc(N[C@@H]2CCCC[C@@H]2N)nc1Nc1cccc(-n2nccn2)c1
Procedure, shortened: as §1

[3] = compound: NC1(c2ccc(-c3nc4ccn5c(=O)[nH]nc5c4cc3-c3ccccc3)cc2)CCC1
Procedure, shortened: as §1

[4] = compound: NCC(=O)Nc1ccc(-n2nc(C(F)(F)F)cc2-c2ccc3c(ccc4ccccc43)c2)cc1
Procedure, shortened: as §1

entinostat = compound: Nc1ccccc1NC(=O)c1ccc(CNC(=O)OCc2cccnc2)cc1 [entinostat]
Procedure, shortened: as §1

vorinostat = compound: O=C(CCCCCCC(=O)Nc1ccccc1)NO [vorinostat]
Procedure, shortened: as §1

citarinostat = compound: O=C(CCCCCCNC(=O)c1cnc(N(c2ccccc2)c2ccccc2Cl)nc1)NO [citarinostat]
Procedure, shortened: as §1

silmitasertib = compound: O=C(O)c1ccc2c(c1)nc(Nc1cccc(Cl)c1)c1ccncc12 [silmitasertib]
Procedure, shortened: as §1

[5] = compound: O=C1NC(=O)C(c2cnc3ccccn23)=C1c1cn2c3c(cc(F)cc13)CN(C(=O)N1CCCCC1)CC2
Procedure, shortened: as §1

[6] = compound: c1cc(OCCN2CCCCC2)cc(-c2n[nH]c3ccc(-c4nnc[nH]4)cc23)c1
Procedure, shortened: as §1

Target	log2 fold change [1]	log2 fold change [2]	log2 fold change [3]	log2 fold change [4]	log2 fold change (entinostat)	log2 fold change (vorinostat)	log2 fold change (citarinostat)	log2 fold change (silmitasertib)	log2 fold change [5]	log2 fold change [6]
MARCKS (UniProt P29966)	inactive: -0.018	inactive: 0.108	inactive: 0.038	inactive: 0.07	inactive: -0.074	inactive: -0.159	inactive: 0.062	inactive: -0.021	inactive: 0.031	inactive: -0.08
LSR (UniProt Q86X29)	inactive: -0.135	inactive: 0.066	inactive: 0.066	inactive: 0.039	inactive: -0.054	inactive: -0.027	inactive: 0.006	inactive: -0.036	inactive: 0.03	inactive: -0.012
MAGT1 (UniProt Q9H0U3)	inactive: -0.09	inactive: -0.063	inactive: -0.024	inactive: 0.017	inactive: -0.005	inactive: 0.008	inactive: -0.027	inactive: 0.038	inactive: -0.021	inactive: -0.061
MAP4 (UniProt E7EVA0)	inactive: 0.162	inactive: 0.165	inactive: 0.144	inactive: 0.105	inactive: -0.096	inactive: -0.018	inactive: -0.164	inactive: 0.003	inactive: 0.106	inactive: -0.075
LYN (UniProt P07948)	active: 0.385	inactive: 0.048	inactive: -0.048	inactive: -0.016	inactive: -0.006	inactive: 0.058	inactive: 0.017	inactive: 0.176	inactive: 0.022	inactive: 0.143
MAP3K2 (UniProt Q9Y2U5)	inactive: -0.06	inactive: 0.15	inactive: 0.226	inactive: 0.007	inactive: 0.006	inactive: -0.15	inactive: 0.16	inactive: 0.113	inactive: -0.001	inactive: -0.023
LRSAM1 (UniProt Q6UWE0)	inactive: 0	inactive: 0.012	inactive: -0.121	inactive: 0.018	inactive: 0.049	inactive: 0.04	inactive: 0.071	inactive: 0.05	inactive: -0.006	inactive: 0.039
MAP4 (UniProt P27816)	inactive: 0.039	inactive: 0.002	inactive: 0.04	inactive: 0.025	inactive: -0.015	inactive: -0.013	inactive: -0.007	inactive: -0.018	inactive: 0.003	inactive: -0.014
LZTFL1 (UniProt Q9NQ48)	inactive: 0.029	inactive: -0.036	inactive: -0.1	inactive: -0.026	inactive: 0.01	inactive: 0.055	inactive: 0.03	inactive: -0.01	inactive: 0	inactive: -0.068
MAPK3 (UniProt P27361)	inactive: 0.097	inactive: 0.067	inactive: -0.008	inactive: 0.068	inactive: 0.039	inactive: 0.093	inactive: 0.116	inactive: -0.045	inactive: 0.022	inactive: 0.059
MAGEC2 (UniProt Q9UBF1)	inactive: 0.013	inactive: -0.037	inactive: -0.021	inactive: -0.004	inactive: -0.009	inactive: 0.032	inactive: 0.029	inactive: 0.057	inactive: 0.089	inactive: -0.09
LSM12 isoform 2 (UniProt Q3MHD2)	inactive: 0.084	inactive: 0.006	inactive: -0.005	inactive: -0.009	inactive: 0.049	inactive: -0.031	inactive: 0.052	inactive: -0.026	inactive: 0.009	inactive: -0.042
M6PR (UniProt P20645)	inactive: -0.057	inactive: 0.132	inactive: 0.023	inactive: 0.056	inactive: 0.013	inactive: -0.027	inactive: -0.078	inactive: -0.006	inactive: -0.007	inactive: 0.041
MANF (UniProt P55145)	inactive: 0.072	inactive: -0.013	inactive: -0.013	inactive: 0.025	inactive: 0	inactive: -0.042	inactive: 0.001	inactive: 0.002	inactive: -0.02	inactive: -0.005
LYRM7 (UniProt Q5U5X0)	inactive: -0.071	inactive: -0.041	inactive: -0.037	inactive: 0.072	inactive: -0.019	inactive: 0.011	inactive: 0.013	inactive: 0.007	inactive: -0.047	inactive: -0.035
LSM6 (UniProt P62312)	inactive: 0.034	inactive: 0.068	inactive: 0.067	inactive: 0.151	inactive: 0.004	inactive: 0.009	inactive: 0.032	inactive: -0.015	inactive: -0.013	inactive: 0.001
MAPK14 isoform 2 (UniProt Q16539)	inactive: -0.052	inactive: 0.028	inactive: -0.192	inactive: -0.168	inactive: 0.016	inactive: -0.055	inactive: 0.085	inactive: 0.477	inactive: -0.004	inactive: 0.024
MAGOHB (UniProt Q96A72)	inactive: -0.081	inactive: 0.177	inactive: -0.039	inactive: -0.132	inactive: 0.016	inactive: -0.023	inactive: 0.043	inactive: -0.006	inactive: 0.002	inactive: -0.089
MAP2K4 isoform 2 (UniProt P45985)	inactive: 0.011	inactive: 0.015	inactive: -0.118	inactive: -0.04	inactive: -0.01	inactive: 0.062	inactive: -0.015	inactive: 0	inactive: -0.057	inactive: -0.035
LSM2 (UniProt Q9Y333)	inactive: 0.017	inactive: -0.013	inactive: -0.033	inactive: 0.009	inactive: -0.054	inactive: 0.021	inactive: 0.053	inactive: 0.012	inactive: -0.025	inactive: -0.042
MAP2K2 (UniProt P36507)	inactive: 0	inactive: -0.042	inactive: -0.023	inactive: -0.003	inactive: 0.061	inactive: 0.039	inactive: -0.051	inactive: -0.098	inactive: -0.055	inactive: -0.018
MAPK8 isoform 3 (UniProt P45983)	inactive: -0.05	inactive: -0.02	inactive: -0.062	inactive: -0.05	inactive: 0.001	inactive: -0.027	inactive: -0.049	inactive: 0.008	inactive: -0.044	inactive: 0.362
MAPK6 (UniProt Q16659)	inactive: -0.045	inactive: 0.03	inactive: -0.003	inactive: -0.254	inactive: -0.033	inactive: -0.032	inactive: -0.178	inactive: -0.144	inactive: -0.065	inactive: 0.036
MAN1B1 (UniProt Q9UKM7)	inactive: 0.009	inactive: 0.008	inactive: -0.055	inactive: -0.064	inactive: 0.011	inactive: 0.003	inactive: -0.013	inactive: 0.024	inactive: -0.049	inactive: -0.133
MAPK1 (UniProt P28482)	inactive: 0.022	inactive: -0.028	inactive: -0.015	inactive: 0.032	inactive: -0.023	inactive: 0.004	inactive: 0.05	inactive: -0.026	inactive: 0.022	inactive: 0.011
LSM14B (UniProt Q9BX40)	inactive: 0.028	inactive: -0.008	inactive: 0.015	inactive: -0.137	inactive: 0.024	inactive: 0.13	inactive: 0.042	inactive: -0.027	inactive: 0.171	inactive: -0.047
MAP1B (UniProt P46821)	inactive: 0.022	inactive: 0.008	inactive: 0.049	inactive: 0.032	inactive: -0.054	inactive: -0.034	inactive: -0.025	inactive: 0.018	inactive: 0.007	inactive: -0.059
MAP3K20 (UniProt Q9NYL2)	inactive: -0.008	inactive: 0.035	inactive: -0.012	inactive: -0.03	inactive: 0.019	inactive: 0	inactive: 0.002	inactive: 0.031	inactive: 0.026	inactive: -0.09
MACO1 (UniProt Q8N5G2)	inactive: -0.023	inactive: -0.01	inactive: -0.021	inactive: -0.051	inactive: -0.011	inactive: 0.002	inactive: -0.024	inactive: -0.014	inactive: 0.048	inactive: -0.023

Copied from the listing for reference:
Target	log2 fold change [1]	log2 fold change [2]	log2 fold change [3]	log2 fold change [4]	log2 fold change (entinostat)	log2 fold change (vorinostat)	log2 fold change (citarinostat)	log2 fold change (silmitasertib)	log2 fold change [5]	log2 fold change [6]
LSM14B (UniProt Q9BX40)	inactive: 0.028	inactive: -0.008	inactive: 0.015	inactive: -0.137	inactive: 0.024	inactive: 0.13	inactive: 0.042	inactive: -0.027	inactive: 0.171	inactive: -0.047
MAP1B (UniProt P46821)	inactive: 0.022	inactive: 0.008	inactive: 0.049	inactive: 0.032	inactive: -0.054	inactive: -0.034	inactive: -0.025	inactive: 0.018	inactive: 0.007	inactive: -0.059
